Record: PubChem BioAssay AID1224828 (NIAID, 2016)
In all, the deposit lists about 17,000 reagents; shown is a random part of them. 762 of them (4.5%) were called active. 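Active calls include both raised and lowered p65 entry, mostly lowered; wells with fewer than 50 cells lack a z-score.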 Raw values vary from plate to plate and are shown uncorrected. Entries without a mark were called inactive. No sequences are given here.

Test: 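Knock-downs that increase or decrease LPS-induced p65 nuclear translocation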 (primary screen)
Cells: mouse RAW264.7 G9 macrophage reporter cells (GFP-p65, Tnf promoter-mCherry)
Reagents: siRNA pool against mouse genes, 100 nM
Timing: 2 days siRNA transfection, then 40 min LPS before fixation
Treatment: LPS (Salmonella minnesota R595) at 10 ng/ml
Detection: 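Imaged p65 nuclear translocation ratio, normalised to the plate median, converted to robust z-scores and averaged across two replicates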
Direction: p65 translocation robust z-score: higher = more nuclear NF-kappaB p65 after LPS than the plate median; nuclear/cytoplasmic p65 ratio: higher = more nuclear NF-kappaB p65
Hit rule: 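Called active when z exceeds 3.3 or falls under -1.56 (median of Tlr4 controls), giving activity score of at least 50; no calls for control wells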
Calls: active = hit (p65 shift raised or lowered); inactive = no clear change

The first 2 records, to show the layout:
{"gene knocked down":"Tbc1d19","nuclear/cytoplasmic p65 ratio, rep 1":1.28,"nuclear/cytoplasmic p65 ratio, rep 2":1.21,"low cell count flag":"fewer than 50 cells per well; well left out of scoring"}
{"gene knocked down":"Tmem135","nuclear/cytoplasmic p65 ratio, rep 1":1.26,"nuclear/cytoplasmic p65 ratio, rep 2":1.17,"low cell count flag":"fewer than 50 cells per well; well left out of scoring"}

The list itself, from the start:
{"gene knocked down":"Tbc1d19","nuclear/cytoplasmic p65 ratio, rep 1":1.28,"nuclear/cytoplasmic p65 ratio, rep 2":1.21,"low cell count flag":"fewer than 50 cells per well; well left out of scoring"}
{"gene knocked down":"Tmem135","nuclear/cytoplasmic p65 ratio, rep 1":1.26,"nuclear/cytoplasmic p65 ratio, rep 2":1.17,"low cell count flag":"fewer than 50 cells per well; well left out of scoring"}
{"gene knocked down":"Guca1b","p65 translocation robust z-score":0.42,"nuclear/cytoplasmic p65 ratio, rep 1":1.44,"nuclear/cytoplasmic p65 ratio, rep 2":1.47,"low cell count flag":"enough cells to score"}
{"gene knocked down":"Stat6","p65 translocation robust z-score":0.18,"nuclear/cytoplasmic p65 ratio, rep 1":1.52,"nuclear/cytoplasmic p65 ratio, rep 2":1.64,"low cell count flag":"enough cells to score"}
{"gene knocked down":"Gtpbp1","p65 translocation robust z-score":0.32,"nuclear/cytoplasmic p65 ratio, rep 1":1.57,"nuclear/cytoplasmic p65 ratio, rep 2":1.7,"low cell count flag":"enough cells to score"}
{"gene knocked down":"Brd8","p65 translocation robust z-score":-0.58,"nuclear/cytoplasmic p65 ratio, rep 1":1.54,"nuclear/cytoplasmic p65 ratio, rep 2":1.51,"low cell count flag":"enough cells to score"}
{"gene knocked down":"Prl7c1","p65 translocation robust z-score":0.05,"nuclear/cytoplasmic p65 ratio, rep 1":1.41,"nuclear/cytoplasmic p65 ratio, rep 2":1.2,"low cell count flag":"enough cells to score"}
{"gene knocked down":"Cep295nl","p65 translocation robust z-score":-1.3,"nuclear/cytoplasmic p65 ratio, rep 1":1.5,"nuclear/cytoplasmic p65 ratio, rep 2":1.39,"low cell count flag":"enough cells to score"}
{"gene knocked down":"Or11g24","nuclear/cytoplasmic p65 ratio, rep 1":1.59,"nuclear/cytoplasmic p65 ratio, rep 2":1.2,"low cell count flag":"fewer than 50 cells per well; well left out of scoring"}
{"gene knocked down":"Derl2","p65 translocation robust z-score":-0.2,"nuclear/cytoplasmic p65 ratio, rep 1":1.48,"nuclear/cytoplasmic p65 ratio, rep 2":1.89,"low cell count flag":"enough cells to score"}
{"gene knocked down":"Cubn","p65 translocation robust z-score":0.71,"nuclear/cytoplasmic p65 ratio, rep 1":1.54,"nuclear/cytoplasmic p65 ratio, rep 2":1.45,"low cell count flag":"enough cells to score"}
{"gene knocked down":"5730596B20Rik","p65 translocation robust z-score":"-2 (active)","nuclear/cytoplasmic p65 ratio, rep 1":1.17,"nuclear/cytoplasmic p65 ratio, rep 2":1.2,"low cell count flag":"enough cells to score"}
{"gene knocked down":"Maco1","p65 translocation robust z-score":-0.73,"nuclear/cytoplasmic p65 ratio, rep 1":1.46,"nuclear/cytoplasmic p65 ratio, rep 2":1.55,"low cell count flag":"enough cells to score"}
{"gene knocked down":"Or52r1c","p65 translocation robust z-score":-0.62,"nuclear/cytoplasmic p65 ratio, rep 1":1.28,"nuclear/cytoplasmic p65 ratio, rep 2":1.26,"low cell count flag":"enough cells to score"}
